From PubChem BioAssay AID2685 (National Center for Advancing Translational Sciences (NCATS), 2010)
This is one part of the list. Further columns of the screen follow, without active or inactive calls. Compounds called inactive in the main read-out are mostly missing here. Potencies come from curve fits of mixed quality, noted in brackets.

Assay: qHTS Assay for Lipid Storage Modulators in Drosophila S3 Cells;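 as to cell number change: cells counted by Cell Tracker Red CMTPX staining in the red channel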
Settings: BODIPY lipid droplet fluorescence, 18-24 h; for cell number change: measured here: cell count max response, cells fed with added oleic acid
Procedure, shortened: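 Laser-scanning cytometry quantifies lipid droplet accumulation (500–530 nm total intensity; droplet/cell object ratio) in oleic acid-fed (400 uM added) Drosophila S3 cells treated with a concentration series. 20 uM Triacsin C defined 100% inhibition.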

[1] = measured here: lipid fluorescence (Fed channel) AC50, cells fed with added oleic acid
[2] = measured here: cell number channel AC50, cells fed with added oleic acid

C=CCNC(=S)N1CCN(CCN=CC2=C(O)CC(c3ccc(Cl)cc3)CC2=O)CC1 (stereo unspecified)
AC50 [1]: 0.58 µM [rising, single point]

CS(=O)(=O)N(CCc1ccccc1)CC(=O)N1CCN(Cc2ccc3c(c2)OCO3)CC1
cell number change: -25.5%

NS(=O)(=O)c1ccc(CCNC(=O)c2ccc3c(c2)OCO3)cc1
AC50 [1]: 20.6 µM [falling, single point]

Nc1c(C(=O)Nc2ccccc2)c2nc3ccccc3nc2n1-c1ccc(O)cc1
cell number change: -33.2%
AC50 [2]: 29.1 µM [falling, partial curve, poor fit]

COc1c2ccoc2nc2c(OC)c(OCC(O)C(C)(C)O)ccc12 (stereo unspecified)
cell number change: 179%
AC50 [1]: 29.1 µM [rising, single point]

COc1cc(C(CC(=O)Nc2cc(C)ccn2)N2Cc3ccccc3C2=O)cc(OC)c1OC (stereo unspecified)
cell number change: -7.8%
AC50 [1]: 5.8 µM [rising, single point]

CCCCN(C(=O)c1ccc(OC(F)(F)F)cc1)c1c(N)n(CCC)c(=O)[nH]c1=O
cell number change: -53.4%
AC50 [1]: 18.4 µM [falling, single point]

NC(=O)c1ccc(NC(=O)CCc2nc3ccccc3s2)cc1
cell number change: 40.5%
AC50 [2]: 29.1 µM [rising, single point]
AC50 [1]: 0.461 µM [rising, single point]

O=C(Nc1nc2ccccc2[nH]1)c1ccc(S(=O)(=O)N2CCOCC2)cc1
cell number change: 94.3%
AC50 [2]: 29.1 µM [rising, single point]
AC50 [1]: 29.1 µM [rising, single point]

CSCCC(NC(=O)c1cccc(C)c1)C(=O)OCC(=O)Nc1c(C)nn(-c2ccccc2)c1C (stereo unspecified)
cell number change: 3.94%
AC50 [1]: 6.51 µM [falling, single point]

O=C1c2ccccc2NC(c2ccc(-c3ccccc3F)o2)N1O (stereo unspecified)
cell number change: -40.9%
AC50 [2]: 3.66 µM [falling, partial curve]
AC50 [1]: 2.59 µM [falling, partial curve]

O=C(Nc1nn(Cc2ccccc2F)cc1Br)c1cccs1
cell number change: -5.27%
AC50 [1]: 13 µM [rising, partial curve]

COc1cccc(CNS(=O)(=O)c2cc3c(cc2C)NC(=O)CO3)c1
cell number change: -3.75%
AC50 [1]: 4.11 µM [falling, single point]

Cc1noc(C(=O)Nc2cccc(O)c2)c1Cl
cell number change: 33.8%
AC50 [2]: 18.4 µM [rising, single point]
AC50 [1]: 29.1 µM [rising, single point]

CN(Cc1ccccc1)C(=O)C1CCN(S(C)(=O)=O)CC1
cell number change: 15.8%

Cn1c(SCC(N)=O)nnc1C1CCN(S(=O)(=O)c2ccccc2C(F)(F)F)CC1
cell number change: -1.62%

Cc1ccc(OCCNC(=O)C2CCCCC2)cc1
cell number change: 19.8%

CN1/C(=C\C(=O)c2cccnc2Cl)C(C)(C)c2ccccc21
cell number change: 11.5%
AC50 [2]: 0.13 µM [rising, full curve, poor fit]
AC50 [1]: 20.6 µM [rising, single point]

CC(CCN1C(Nc2ccccc2)=NC[C@@H]1C)c1ccccc1 (stereo partly specified)
cell number change: 18.6%
AC50 [1]: 29.1 µM [falling, single point]

Cc1ccc(S(=O)(=O)Nc2c(C)nn(C)c2C)cc1C
cell number change: 10.8%
AC50 [2]: 0.461 µM [rising, full curve]
AC50 [1]: 0.517 µM [rising, full curve]

COc1ccc2[nH]c(CN3CCC(n4nccc4NC(=O)C4CC4)CC3)c(C)c2c1
cell number change: 26.9%
AC50 [1]: 0.00461 µM [rising, full curve, poor fit]

Cc1ccc(C(=S)N2CCN(Cc3ccccc3)CC2)cc1
cell number change: -18.8%
AC50 [1]: 1.58 µM [falling, full curve]

CCCc1cc(C(=O)NCc2ccco2)no1
cell number change: -17.6%
AC50 [1]: 3.26 µM [falling, partial curve]

CCOC(=O)/C(=N\Nc1ncnc2ccccc12)c1ccc(OC)cc1
cell number change: -1.8%

O=C(O)CNC(=O)c1ccc(NS(=O)(=O)c2ccc3ccccc3c2)cc1
cell number change: -5.71%

CCOC(=O)C1(CCCc2ccccc2)CCN(C(=O)CCn2cncn2)CC1
cell number change: 0.716%
AC50 [1]: 0.366 µM [falling, full curve]

CCOc1ccc(-n2c(SCC(N)=O)nc3c(c2=O)SCC3)cc1
cell number change: -0.405%

NCCCCCNC(=O)/C=N\O
cell number change: -7.48%
AC50 [1]: 0.291 µM [falling, full curve, poor fit]

COc1ccc(-c2noc(CCC(=O)Nc3cc(OC)ccc3OC)n2)cc1
cell number change: 3.47%
AC50 [1]: 0.58 µM [rising, full curve]

CCCn1cc(CN2CCC(C(=O)Nc3cccc(-c4cscn4)c3)CC2)c(C)n1
cell number change: 9.54%
AC50 [2]: 5.17 µM [falling, single point]
AC50 [1]: 4.61 µM [falling, single point]

CCCCn1c(N2CCC(Cc3ccccc3)CC2)nc2c1c(=O)[nH]c(=O)n2C
cell number change: -211%
AC50 [2]: 20.6 µM [falling, partial curve]
AC50 [1]: 18.4 µM [falling, partial curve]

CC(NC(=O)C(=O)N1CCOCC1)C(c1cccs1)N1CCN(c2ccccc2)CC1 (stereo unspecified)
cell number change: -23.2%

COc1ccc(C2/C(=C(/O)c3ccc(C)cc3)C(=O)C(=O)N2C)cc1 (stereo unspecified)
cell number change: -105%
AC50 [2]: 32.6 µM [falling, partial curve]
AC50 [1]: 7.31 µM [falling, partial curve]

O=C(O)c1ccccc1Oc1ccc(Oc2ccccc2)cc1
cell number change: 7.67%
AC50 [1]: 29.1 µM [rising, partial curve, poor fit]

S=c1[nH]nc(-c2ccccc2)o1
AC50 [1]: 2.31 µM [rising, partial curve]

O=C(COc1ccc(Cl)cc1)N(Cc1ccc(F)cc1)C1CCS(=O)(=O)C1 (stereo unspecified)
cell number change: -11.9%

CCOC(=O)c1c(NC(C)=O)sc2c(OC(C)=O)cccc12
cell number change: -35.2%
AC50 [2]: 0.146 µM [falling, full curve, poor fit]

O=C(CN1C(=O)c2cccc3cccc1c23)NCc1cccnc1
cell number change: 246%
AC50 [2]: 20.6 µM [rising, partial curve]
AC50 [1]: 3.26 µM [rising, partial curve]

COC(=O)[C@H](CCSC)NS(=O)(=O)c1ccccc1Br
cell number change: -4.48%
AC50 [1]: 29.1 µM [rising, single point]
